Experimental data: the supplement of paper PMC12823440, “Inhibitors supercharge kinase turnover through native proteolytic circuits” (Nature, 2025)
Counter-ions that a name gives are not always drawn. Some of the results follow. The calls rarely recur for the same compound in another form.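 Kinases were expressed as nanoluciferase fusions in K562 cells and luminescence was read every 4 h between 2 and 18 h as percent of control, DMSO set to 100% and a positive control to 0%. A time point counts as decreased when the signal drops significantly (2 sigma). The hit call is the authors' own, does not follow from the count of time points alone, and its rule is not shown.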

Chains of the proteins cited; added tags and fusions are not shown.
UniProt Q9Y463, whole entry, looked up: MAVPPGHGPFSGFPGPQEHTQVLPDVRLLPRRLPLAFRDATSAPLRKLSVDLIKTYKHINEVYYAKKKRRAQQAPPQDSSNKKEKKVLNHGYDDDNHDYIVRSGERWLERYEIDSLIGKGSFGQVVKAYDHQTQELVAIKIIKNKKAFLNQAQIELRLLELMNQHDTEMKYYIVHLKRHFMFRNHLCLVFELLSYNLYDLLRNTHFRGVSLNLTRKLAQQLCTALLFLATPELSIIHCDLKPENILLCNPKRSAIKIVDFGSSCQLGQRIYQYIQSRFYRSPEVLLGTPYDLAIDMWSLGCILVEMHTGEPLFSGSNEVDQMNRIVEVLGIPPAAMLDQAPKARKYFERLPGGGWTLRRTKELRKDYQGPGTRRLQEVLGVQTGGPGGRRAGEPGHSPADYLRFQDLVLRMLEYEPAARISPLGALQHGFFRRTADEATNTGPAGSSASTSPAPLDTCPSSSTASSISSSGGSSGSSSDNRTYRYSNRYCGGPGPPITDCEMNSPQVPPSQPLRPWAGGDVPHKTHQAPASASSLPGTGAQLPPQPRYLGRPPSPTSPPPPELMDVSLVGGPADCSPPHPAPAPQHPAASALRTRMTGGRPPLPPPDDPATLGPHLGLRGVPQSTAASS

These molecules were tested against DYRK1B (UniProt Q9Y463) (assay: kinase-Nluc reporter destabilization hit call (1 = scored as downregulated) (binary); higher = compound decreases kinase abundance). Conditions: K562; 2-18 h.

kinase-Nluc reporter destabilization hit call, inactive:
CC#CC(=O)N[C@H]1CCCN(c2c(F)cc(C(N)=O)c3[nH]c(C)c(C)c23)C1 [Branebrutinib] (10 µM) 0, O=C1NC(=NCc2cccs2)S/C1=C\c1ccc2ncccc2c1 (10 µM) 0, Cn1c(=O)n(-c2ccc(C(C)(C)C#N)cc2)c2c3cc(-c4cnc5ccccc5c4)ccc3ncc21 [Dactolisib (Tosylate)] (10 µM) 0, COC(=O)c1ccc2c(C(=Nc3ccc(N(C)C(=O)CN4CCN(C)CC4)cc3)c3ccccc3)c(O)[nH]c2c1 [Nintedanib] (2.5 µM) 0, COc1cc2ncnc(Nc3ccc(O)cc3)c2cc1OC (10 µM) 0, O=C(c1ccc(-c2ccc(Cl)cc2)o1)N(Cc1ccccn1)c1ccc(N2CCNCC2)cc1 [MK2-IN-1 (hydrochloride)] (10 µM) 0, CN1CCN(S(=O)(=O)c2ccc(-c3cnc(N)c(C(=O)Nc4cccnc4)n3)cc2)CC1 (10 µM) 0, CN(C)C[C@@H]1CCn2cc(c3ccccc32)C2=C(C(=O)NC2=O)c2cn(c3ccccc23)CCO1 [Ruboxistaurin (hydrochloride)] (10 µM) 0, COc1ccc(Oc2cc(NCCC(F)(F)F)c3ncc(-c4ccc(C(=O)NC5CC5)c(C)c4)n3n2)c(F)c1F (2.5 µM) 0, CCCCNc1ncc(-c2ccc(CN3CCOCC3)cn2)c(NC2CCC(O)CC2)n1 (stereo not given) (10 µM) 0, O=C(Nc1cc(C(F)(F)F)ccc1N1CCN(Cc2ccccn2)CC1)c1ccc(-c2ccncc2)o1 (10 µM) 0, CC(C)(/C=C(\C#N)C(=O)N1CCC[C@@H](n2nc(-c3ccc(Oc4ccccc4)cc3F)c3c(N)ncnc32)C1)N1CCN(C2COC2)CC1 (2.5 µM) 0, CNC(=O)c1cccc2cc(Oc3ccnc4cc(OCC5(N)CC5)c(OC)cc34)ccc12 [Lucitanib] (10 µM) 0, COc1cc(F)cc([C@@H](CO)NC(=O)[C@@H](C)N2Cc3ccc(-c4nc(NC5CCOCC5)ncc4Cl)cc3C2=O)c1 [ERK1/2 inhibitor 2] (10 µM) 0, O=c1cc(-c2ccccc2)oc2c(O)c(O)ccc12 [7,8-Dihydroxyflavone] (10 µM) 0, C=CC(=O)N1CC[C@H](n2nc(C#Cc3cc(OC)cc(OC)c3)c3c(N)ncnc32)C1 [Futibatinib] (10 µM) 0, O=C1Nc2ccccc2/C1=C/c1ccc(F)cc1 (10 µM) 0, CN(C)Cc1ccc(-c2cnn3c(-c4cccc(NC(=O)c5cccc(C(F)(F)F)c5)c4)ccnc23)cc1 (2.5 µM) 0, Cc1c[nH]c(/C=C2\C(=O)Nc3ccccc32)c1CCC(=O)O (10 µM) 0, CC(C)c1ccc2oc3nc(N)c(C(=O)O)cc3c(=O)c2c1 [Amlexanox] (10 µM) 0, NS(=O)(=O)c1ccc(Nc2nc(OCC3CCCCC3)c3[nH]cnc3n2)cc1 (10 µM) 0, Cn1nc(C(C)(C)C)cc1NC(=O)Nc1ccc(Oc2ccncc2)cc1 (10 µM) 0, COc1ccc(F)c(F)c1C(=O)c1cnc(NC2CCN(S(C)(=O)=O)CC2)nc1N (2.5 µM) 0, COc1cc(C(=O)NC2CCN(C)CC2)ccc1Nc1ncc2c(n1)N(C1CCCC1)CC(F)(F)C(=O)N2C (10 µM) 0, CCN1C(=O)N(c2c(F)c(OC)cc(OC)c2F)Cc2cnc3[nH]c(CN4CCOCC4)cc3c21 [Pemigatinib] (10 µM) 0, COc1cc(Oc2ccnc3cc(OC)c(OC)cc23)ccc1NC(=O)NC(C)c1nccs1 (stereo not given) (2.5 µM) 0, C=CC(=O)N1C[C@H](Nc2ncnc3[nH]ccc23)CC[C@@H]1C [Ritlecitinib] (10 µM) 0, CC(C)(C)S(=O)(=O)c1cc2c(Nc3ccc4scnc4c3)ncnc2cc1OCCO (2.5 µM) 0, O=C(NOC[C@H](O)CO)c1ccc(F)c(F)c1Nc1ccc(I)cc1F (2.5 µM) 0, Cc1cccc([C@@H](CO)NC(=O)[C@@H](C)N2Cc3ccc(-c4nc(NC5CCOCC5)ncc4Cl)cc3C2=O)c1 [ERK1/2 inhibitor 1] (10 µM) 0
